PubChem BioAssay AID504774 – Drosophila RNAi Screening Center – 2011

Aim: 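Genes required for cells to withstand methyl methanesulphonate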 (primary screen)
Cells: Drosophila Kc167 cells
Knock-down reagent: long dsRNA against Drosophila genes, about 0.25 µg dsRNA per well
Timing: about 6 days: 3 days knock-down, then 3 days with or without MMS
Treatment: methyl methanesulphonate 0.004% (w/v) for 3 days after knock-down
Measurement: 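Viability in wells given MMS, read as ATP luminescence, normalised by quantiles plate by plate and averaged across replicates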
Direction: mean viability with MMS and viability with MMS: higher = more surviving cells after MMS
The deposit covers about 23,000 reagents; below is a random part of those with a known target gene and a result. 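Values are quantile-normalised luminescence on an arbitrary scale; higher means more cells surviving MMS.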 A plus sign joins genes that one reagent is predicted to hit.

no.	target	amplicon	mean viability with MMS	viability with MMS, replicate 1	viability with MMS, replicate 2
1	PGRP-LD + Cralbp + Pmi	DRSC09743	3.47e6	3.94e6	3.94e6
2	CG33310	DRSC01897	3.68e6	4.24e6	4.05e6
3	Dh44-R1	DRSC07172	3.54e6	3.95e6	4.07e6
4	CG17637	DRSC11740	3.56e6	4.05e6	4.03e6
5	CG3349	DRSC10359	3.75e6	4.38e6	4.02e6
6	JMJD5	DRSC08372	3.57e6	4.00e6	4.08e6
7	Fcp1	DRSC04121	3.55e6	4.00e6	4.01e6
8	GstE2	DRSC06672	3.60e6	4.10e6	4.04e6
9	CG34444	DRSC06435	3.54e6	4.12e6	4.14e6
10	Polr2A	DRSC20280	2.42e6	2.89e6	2.92e6
11	CG13896	DRSC08366	3.43e6	3.96e6	3.83e6
12	unc79	DRSC15746	3.69e6	4.18e6	4.13e6
13	hiw	DRSC20338	3.75e6	4.22e6	4.16e6
14	hiw	DRSC20339	3.48e6	3.98e6	3.91e6
15	CG6059	DRSC15958	3.58e6	4.07e6	4.04e6
16	CG34125	DRSC00850	3.30e6	3.83e6	3.65e6
17	CG31787	DRSC01632	3.39e6	3.98e6	3.66e6
18	sima	DRSC17055	3.10e6	3.58e6	3.54e6
19	sima	DRSC23203	3.23e6	3.63e6	3.65e6
20	CG14641	DRSC12227	3.30e6	3.69e6	3.78e6
21	CG32833	DRSC04596	3.62e6	4.03e6	4.18e6
22	CG17544	DRSC02624	3.40e6	3.70e6	3.96e6
23	CG16723	DRSC15138	3.46e6	3.98e6	3.84e6
24	Phlpp	DRSC02065	3.66e6	4.12e6	4.17e6
25	Phlpp	DRSC22808	3.43e6	4.02e6	3.83e6
26	zpg	DRSC09702	3.68e6	4.16e6	4.19e6
27	CG14244	DRSC14739	3.59e6	4.03e6	4.11e6
28	Vps13	DRSC06817	3.38e6	3.82e6	3.84e6
29	CG43333	DRSC01917	3.52e6	4.00e6	3.98e6
30	CG43333	DRSC23265	3.21e6	3.54e6	3.64e6
31	schlank	DRSC18102	3.65e6	4.27e6	4.00e6
32	schlank	DRSC18313	3.57e6	4.22e6	3.89e6
33	Gr63a	DRSC08438	3.57e6	4.04e6	4.04e6
34	CG7974	DRSC08607	3.56e6	4.01e6	4.05e6
35	Dpck	DRSC12575	3.54e6	4.04e6	3.99e6
36	pr	DRSC03596	3.74e6	4.00e6	4.53e6
37	bisc	DRSC04083	3.63e6	4.07e6	4.20e6
38	Nep5	DRSC16004	3.70e6	4.13e6	4.23e6
39	witty	DRSC02378	3.61e6	4.17e6	4.03e6
40	witty	DRSC21650	3.48e6	4.02e6	3.91e6
41	Brr2	DRSC10559	3.27e6	3.69e6	3.74e6
42	CG6083	DRSC10580	3.51e6	4.10e6	3.86e6
43	bbg	DRSC11077	3.57e6	4.10e6	4.00e6
44	bbg	DRSC11079	3.39e6	3.85e6	3.77e6

The list goes on (5 carried over from the part before).
no.	target	amplicon	mean viability with MMS	viability with MMS, replicate 1	viability with MMS, replicate 2
40	witty	DRSC21650	3.48e6	4.02e6	3.91e6
41	Brr2	DRSC10559	3.27e6	3.69e6	3.74e6
42	CG6083	DRSC10580	3.51e6	4.10e6	3.86e6
43	bbg	DRSC11077	3.57e6	4.10e6	4.00e6
44	bbg	DRSC11079	3.39e6	3.85e6	3.77e6
45	CG13293	DRSC09967	3.55e6	4.03e6	4.03e6
46	E(spl)m2-BFM	DRSC16991	2.97e6	3.59e6	3.62e6
47	E(spl)m2-BFM	DRSC23082	3.64e6	4.10e6	4.16e6
48	CG31300	DRSC14657	3.46e6	3.96e6	3.87e6
49	IntS11	DRSC15407	3.39e6	3.93e6	3.79e6
50	CG30423	DRSC04013	3.66e6	4.13e6	4.18e6
51	CenB1A	DRSC16923	3.54e6	4.01e6	4.00e6
52	Ifrd1	DRSC00415	3.35e6	4.06e6	3.46e6
53	Ifrd1	DRSC00566	3.31e6	4.08e6	3.33e6
54	CG6479	DRSC10647	3.45e6	3.90e6	3.89e6
55	CG5084	DRSC06913	3.40e6	3.74e6	3.93e6
56	ox	DRSC07520	3.33e6	3.67e6	3.76e6
57	CG18094	DRSC02655	3.51e6	3.94e6	4.00e6
58	CG16853	DRSC01877	3.44e6	3.95e6	3.85e6
59	Agpat4	DRSC10446	3.63e6	4.07e6	4.15e6
60	CG9213	DRSC20170	3.50e6	3.97e6	3.94e6
61	RpLP2	DRSC07539	3.11e6	3.65e6	3.57e6
62	Cyp313a2	DRSC16625	3.64e6	4.11e6	4.07e6
63	Tsp33B	DRSC02418	3.16e6	3.69e6	3.55e6
64	CG34451	DRSC09388	3.55e6	4.04e6	4.01e6
65	CG34451	DRSC09389	3.67e6	4.19e6	4.11e6
66	Nup44A	DRSC07248	3.39e6	3.84e6	3.81e6
67	CG42747	DRSC10209	3.56e6	4.06e6	4.03e6
68	CG42747	DRSC10210	3.55e6	4.10e6	3.95e6
